Measured values taken from PubChem BioAssay AID256 (DTP/NCI, 2004).
The list does not hold the whole screen: it is rich in T/C values a quarter to a half above the control, in often repeated tests (any T/C) and in doses without a T/C. Further doses and runs are listed elsewhere. T/C is the treated group as % of the vehicle group. Some doses have a count of surviving animals in place of a T/C: the source holds a T/C of zero for them, seemingly a mark for toxic or unscored doses. Some survivor counts are full or nearly so, which does not show that the dose was tolerated: the source hardly ever lists a survival T/C far under the control, and the zero likely stands for such cases as well. Counts of survivors are from the toxicity check (mostly the fifth day) where no day follows; animals may have died later. Schedules are NCI's codes, read here as Q, the interval in days (D) or hours (H), X, the number of doses.

Test system: CD2F1 mice, L1210 leukemia ip, survival T/C
Assay: NCI In Vivo Anticancer Drug Screen. Data for tumor model L1210 Leukemia (intraperitoneal) in CD2F1 (CDF1) mice
Details: T/C endpoint: mean survival time, higher T/C = longer survival
Outline: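 Mice carrying a transplanted tumor received test compound or vehicle alone. The value is the measurement in the treated group divided by that in the vehicle-treated control group.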

[1] = dose: 100.0 mg/kg/injection, schedule: Q04DX003 (ip), vehicle: saline with Tween-80
[2] = dose: 200.0 mg/kg/injection, schedule: Q04DX003 (ip), vehicle: saline with Tween-80
[3] = dose: 400.0 mg/kg/injection, schedule: Q04DX003 (ip), vehicle: saline with Tween-80

Question: What does the source list for `CCc1ccc2c(c1)N(CCCN(CCCl)CCCl)c1ccccc1S2`?
Answer: survivor count (dose: 90.0 mg/kg/injection, schedule: Q01DX001 (ip), vehicle: saline with Tween-80): 3 of 6; survivor count (dose: 135.0 mg/kg/injection, schedule: Q01DX001 (ip), vehicle: saline with Tween-80): 2 of 6

Question: With `COc1ccc(C(O)(c2ccccc2)C(O)c2ccccc2)cc1` (configuration not stated) as the molecule, how does the survivor count [1] read?
Answer: The survivor count was 6 of 6.

Question: And the survivor count [2]?
Answer: The survivor count was 6 of 6.

Question: Which survivor count (dose: 10.0 mg/kg/injection, schedule: Q01DX009 (ip), vehicle: gum acacia) does the source give for `CC(C)[S][Pb]([c]1ccccc1)([c]1ccccc1)[c]1ccccc1` here?
Answer: Its survivor count is 6 of 6.

Question: What about the survivor count (dose: 20.0 mg/kg/injection, schedule: Q01DX009 (ip), vehicle: gum acacia) of the same molecule?
Answer: Its survivor count is 0 of 6.

Question: Which survivor count (dose: 300.0 mg/kg/injection, schedule: Q01DX001 (ip), vehicle: saline) does the source give for `CCCCCCCC/C=C\CCCCCCCC(=O)NCCN(CC)CC` here?
Answer: The survivor count was 2 of 6.

Question: How did the survivor count (dose: 400.0 mg/kg/injection, schedule: Q01DX009 (ip), vehicle: saline with Tween-80) turn out when `CC(=O)Nc1ccccc1C(C)=O` was run?
Answer: Its survivor count is 5 of 6.

Question: With `C(=C\c1ccccc1)/C[P+](c1ccccc1)(c1ccccc1)c1ccccc1` as the molecule, how does the survivor count [1] read?
Answer: The survivor count was 0 of 6.

Question: And the survivor count [2]?
Answer: Its survivor count is 0 of 6.

Question: And the survivor count [3]?
Answer: The survivor count was 0 of 6.

Question: How did the survivor count [3] turn out when `COC1=CC(=O)c2ccccc2C1=O` was run?
Answer: The survivor count was 0 of 3.
